Laboratory results from paper PMC3264624.
Results are given in words; binding and its absence hold for the method and conditions named.

Amino acid sequences for entries named in this document (tags omitted).
UniProt P40350: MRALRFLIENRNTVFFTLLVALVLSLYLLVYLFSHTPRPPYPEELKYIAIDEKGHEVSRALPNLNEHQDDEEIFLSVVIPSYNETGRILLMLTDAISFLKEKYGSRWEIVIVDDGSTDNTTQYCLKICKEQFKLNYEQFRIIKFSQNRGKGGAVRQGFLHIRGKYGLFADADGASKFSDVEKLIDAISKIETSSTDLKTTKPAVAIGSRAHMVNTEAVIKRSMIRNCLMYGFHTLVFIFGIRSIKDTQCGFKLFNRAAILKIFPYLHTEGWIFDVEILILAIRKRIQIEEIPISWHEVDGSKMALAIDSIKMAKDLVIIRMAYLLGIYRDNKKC

Biological target: yeast resident ER protein Alg5, split-ubiquitin control fusion (yeast) (UniProt P40350)
Test: two-hybrid; yeast split-ubiquitin system (SUS), strain NMY32; Cub bait and NubG prey; growth on -LWH medium with 15 mM 3-AT, dilution series

Substance: NFR5, yeast split-ubiquitin fusion (from UniProt Q70KR1 1-595) (receptor)
- binding: no binding
